# In patent publication US20210260009A1, “METHODS AND COMPOSITIONS FOR THE TREATMENT OF A RENAL DISEASE” (priority 2020, published 2021):
# B1: sp|P35340|AHPF_ECOLI (protein, UniProt P35340 1-521, looked up)
# Alkyl hydroperoxide reductase …: MLDTNMKTQLKAYLEKLTKPVELIATLDDSAKSAEIKELLAEIAELSDKVTFKEDNSLPVRKPSFLITNPGSNQGPRFAGSPLGHEFTSLVLALLWTGGHPSKEAQSLLEQIRHIDGDFEFETYYSLSCHNCPDVVQALNLMSVLNPRIKHTAIDGGTFQNEITDRNVMGVPAVFVNGKEFGQGRMTLTEIVAKIDTGAEKRAAEELNKRDAYDVLIVGSGPAGAAAAIYSARKGIRTGLMGERFGGQILDTVDIENYISVPKTEGQKLAGALKVHVDEYDVDVIDSQSASKLIPAAVEGGLHQIETASGAVLKARSIIVATGAKWRNMNVPGEDQYRTKGVTYCPHCDGPLFKGKRVAVIGGGNSGVEAAIDLAGIVEHVTLLEFAPEMKADQVLQDKLRSLKNVDIILNAQTTEVKGDGSKVVGLEYRDRVSGDIHNIELAGIFVQIGLLPNTNWLEGAVERNRMGEIIIDAKCETNVKGVFAAGDCTTVPYKQIIIATGEGAKASLSAFDYLIRTKTA
# B2: sp|P64588|YQJI_ECOLI (protein, UniProt P64588 1-207, looked up)
# Transcriptional regulator YqjI: MSHHHEGCCKHEGQPRHEGCCKGEKSEHEHCGHGHQHEHGQCCGGRHGRGGGRRQRFFGHGELRLVILDILSRDDSHGYELIKAIENLTQGNYTPSPGVIYPTLDFLQEQSLITIREEEGGKKQIALTEQGAQWLEENREQVEMIEERIKARCVGAALRQNPQMKRALDNFKAVLDLRVNQSDISDAQIKKIIAVIDRAAFDITQLD
# B3: sp|P0A8A0|YEBC_ECOLI (protein, UniProt P0A8A0 1-246, looked up)
# Probable transcriptional …: MAGHSKWANTRHRKAAQDAKRGKIFTKIIRELVTAAKLGGGDPDANPRLRAAVDKALSNNMTRDTLNRAIARGVGGDDDANMETIIYEGYGPGGTAIMIECLSDNRNRTVAEVRHAFSKCGGNLGTDGSVAYLFSKKGVISFEKGDEDTIMEAALEAGAEDVVTYDDGAIDVYTAWEEMGKVRDALEAAGLKADSAEVSMIPSTKADMDAETAPKLMRLIDMLEDCDDVQEVYHNGEISDEVAATL
# B4: sp|P21599|KPYK2_ECOLI (protein, UniProt P21599 2-480, looked up)
# Pyruvate kinase II: SRRLRRTKIVTTLGPATDRDNNLEKVIAAGANVVRMNFSHGSPEDHKMRADKVREIAAKLGRHVAILGDLQGPKIRVSTFKEGKVFLNIGDKFLLDANLGKGEGDKEKVGIDYKGLPADVVPGDILLLDDGRVQLKVLEVQGMKVFTEVTVGGPLSNNKGINKLGGGLSAEALTEKDKADIKTAALIGVDYLAVSFPRCGEDLNYARRLARDAGCDAKIVAKVERAEAVCSQDAMDDIILASDVVMVARGDLGVEIGDPELVGIQKALIRRARQLNRAVITATQMMESMITNPMPTRAEVMDVANAVLDGTDAVMLSAETAAGQYPSETVAAMARVCLGAEKIPSINVSKHRLDVQFDNVEEAIAMSAMYAANHLKGVTAIITMTESGRTALMTSRISSGLPIFAMSRHERTLNLTALYRGVTPVHFDSANDGVAAASEAVNLLRDKGYLMSGDLVIVTQGDVMSTVGSTNTTRILTVE
# B5: sp|P0A8G6|NQOR_ECOLI (protein, UniProt P0A8G6 2-198, looked up)
# NAD(P)H dehydrogenase …: AKVLVLYYSMYGHIETMARAVAEGASKVDGAEVVVKRVPETMPPQLFEKAGGKTQTAPVATPQELADYDAIIFGTPTRFGNMSGQMRTFLDQTGGLWASGALYGKLASVFSSTGTGGGQEQTITSTWTTLAHHGMVIVPIGYAAQELFDVSQVRGGTPYGATTIAGGDGSRQPSQEELSIARYQGEYVAGLAVKLNG
# B6: sp|P36683|ACNB_ECOLI (protein, UniProt P36683 1-865, looked up)
# Aconitate hydratase B: MLEEYRKHVAERAAEGIAPKPLDANQMAALVELLKNPPAGEEEFLLDLLTNRVPPGVDEAAYVKAGFLAAIAKGEAKSPLLTPEKAIELLGTMQGGYNIHPLIDALDDAKLAPIAAKALSHTLLMFDNFYDVEEKAKAGNEYAKQVMQSWADAEWFLNRPALAEKLTVTVFKVTGETNTDDLSPAPDAWSRPDIPLHALAMLKNAREGIEPDQPGVVGPIKQIEALQQKGFPLAYVGDVVGTGSSRKSATNSVLWFMGDDIPHVPNKRGGGLCLGGKIAPIFFNTMEDAGALPIEVDVSNLNMGDVIDVYPYKGEVRNHETGELLATFELKTDVLIDEVRAGGRIPLIIGRGLTTKAREALGLPHSDVFRQAKDVAESDRGFSLAQKMVGRACGVKGIRPGAYCEPKMTSVGSQDTTGPMTRDELKDLACLGFSADLVMQSFCHTAAYPKPVDVNTHHTLPDFIMNRGGVSLRPGDGVIHSWLNRMLLPDTVGTGGDSHTRFPIGISFPAGSGLVAFAAATGVMPLDMPESVLVRFKGKMQPGITLRDLVHAIPLYAIKQGLLTVEKKGKKNIFSGRILEIEGLPDLKVEQAFELTDASAERSAAGCTIKLNKEPIIEYLNSNIVLLKWMIAEGYGDRRTLERRIQGMEKWLANPELLEADADAEYAAVIDIDLADIKEPILCAPNDPDDARPLSAVQGEKIDEVFIGSCMTNIGHFRAAGKLLDAHKGQLPTRLWVAPPTRMDAAQLTEEGYYSVFGKSGARIEIPGCSLCMGNQARVADGATVVSTSTRNFPNRLGTGANVFLASAELAAVAALIGKLPTPEEYQTYVAQVDKTAVDTYRYLNFNQLSQYTEKADGVIFQTAV
# Tested on: E. coli K-12 proteome
# Conditions: S-sulfhydrated protein pull-down, TMT LC-MS3; ΔdecR E. coli lysate
row,Molecule,ΔdecR
1,B1,1.29
2,B2,0.29
3,B3,0.94
4,B4,1.76
5,B5,1.39
6,B6,1.04
